Experimental data reported in article doi:10.1101/134304.
No constants are given. Whether binding was seen depends on the method and setting. In cells and extracts the contact can be indirect. A result given as binding can be weak or reduced; the word gives no strength. Sequences can lack the tags named with a protein.

Biological target: T1, GFP-Aub (Aubergine) (Drosophila) (UniProt O76922)
T1 sequence: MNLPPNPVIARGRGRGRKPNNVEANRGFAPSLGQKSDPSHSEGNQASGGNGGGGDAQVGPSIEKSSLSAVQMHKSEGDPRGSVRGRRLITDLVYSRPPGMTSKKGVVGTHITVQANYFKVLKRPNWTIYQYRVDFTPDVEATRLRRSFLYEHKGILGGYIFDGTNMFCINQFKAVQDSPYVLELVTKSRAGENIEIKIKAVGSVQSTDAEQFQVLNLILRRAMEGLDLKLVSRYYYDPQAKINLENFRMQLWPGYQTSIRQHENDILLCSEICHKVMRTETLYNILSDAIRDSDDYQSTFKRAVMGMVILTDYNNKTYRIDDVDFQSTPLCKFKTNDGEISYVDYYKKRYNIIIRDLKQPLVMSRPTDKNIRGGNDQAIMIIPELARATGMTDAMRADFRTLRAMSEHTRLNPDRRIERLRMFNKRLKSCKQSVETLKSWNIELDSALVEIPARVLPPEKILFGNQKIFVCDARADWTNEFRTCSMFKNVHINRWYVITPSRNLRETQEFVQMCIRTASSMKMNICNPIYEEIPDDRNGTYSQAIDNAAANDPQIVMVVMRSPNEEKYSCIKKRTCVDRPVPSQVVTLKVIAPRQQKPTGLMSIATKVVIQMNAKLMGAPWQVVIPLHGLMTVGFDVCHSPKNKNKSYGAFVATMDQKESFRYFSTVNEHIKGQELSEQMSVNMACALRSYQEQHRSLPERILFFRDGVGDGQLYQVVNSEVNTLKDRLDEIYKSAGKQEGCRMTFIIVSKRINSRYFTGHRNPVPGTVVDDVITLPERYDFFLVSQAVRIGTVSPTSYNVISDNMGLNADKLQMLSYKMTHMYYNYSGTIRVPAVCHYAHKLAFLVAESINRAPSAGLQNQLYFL
Assay: co-IP

CCR4 deadenylase (subunit of the CCR4-NOT deadenylation complex) (Drosophila (endogenous in ovaries))
binding: binds
